# From PubChem BioAssay AID2551 (National Center for Advancing Translational Sciences (NCATS), 2010)
# By UniProt entry, the sequences of proteins in these tests, tags left out. Where a name states a change or a piece, a line headed by the entry shows the natural chain unless it says otherwise.
# UniProt P51450: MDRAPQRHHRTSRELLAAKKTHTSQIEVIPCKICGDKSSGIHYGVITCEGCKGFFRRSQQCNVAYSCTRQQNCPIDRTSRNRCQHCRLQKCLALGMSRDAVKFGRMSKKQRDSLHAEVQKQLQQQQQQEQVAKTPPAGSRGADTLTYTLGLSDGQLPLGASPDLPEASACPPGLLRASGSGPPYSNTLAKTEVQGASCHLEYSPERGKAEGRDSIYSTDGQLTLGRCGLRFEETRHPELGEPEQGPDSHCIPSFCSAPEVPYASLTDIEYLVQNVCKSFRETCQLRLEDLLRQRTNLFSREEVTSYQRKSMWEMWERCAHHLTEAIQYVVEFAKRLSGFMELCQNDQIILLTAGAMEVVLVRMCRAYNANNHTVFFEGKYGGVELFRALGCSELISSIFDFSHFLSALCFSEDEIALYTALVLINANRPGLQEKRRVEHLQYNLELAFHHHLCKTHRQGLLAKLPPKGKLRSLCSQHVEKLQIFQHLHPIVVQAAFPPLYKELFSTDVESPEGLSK
# The whole screen tested about 310,000 compounds, of which about 17,000 (5.5%) were called active. The inconclusive results got no clear call from the source; some entries with a clear call stand among them for comparison. The call rests on the fitted dose curve; in most records, active means well fitted inhibition curve with a large enough effect; inconclusive means small, poorly fitted or top-dose-only effect, or effect the other way; inactive means no such curve, though single readings can be large or run the other way. Potencies of inconclusive entries are doubtful fits and often do not repeat.
# Target: Nuclear receptor ROR-gamma (Mus musculus) (UniProt P51450)
# Assay: qHTS for inhibitors of ROR gamma transcriptional activity; further: nearly all actives have a fitted effect of over 60% in size
# Conditions: Drosophila S2 Gal4-RORgamma UAS-luciferase reporter, 20 h; series mostly up to 53.6 µM
# Method in brief: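 A Gal4/UAS one-hybrid system in insect cells: metallothionein-promoter Gal4–ROR gamma fusion plus Photinus luciferase reporter. Copper sulfate 700 uM final, 20 hr ambient incubation, luminescent detection after 10 min with reagent.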
# Potency means the concentration at half of the fitted maximal effect.
row,SMILES,Potency
1,COc1ccc(C(=O)Nc2ccc(NC(=O)c3cccc(OC)c3)cn2)cc1,"inconclusive: 35.5 µM [inhibitor, single point]"
2,O=[N+]([O-])c1cc(C(F)(F)F)cc([N+](=O)[O-])c1Sc1n[nH]c(C(F)(F)F)n1,"inconclusive: 17.8 µM [inhibitor, single point]"
3,CCOc1ccc(N=C(NN)c2ccc3ccccc3n2)cc1,active: 10 µM
4,COc1ccc(OC)c(C2NC(=O)NC(C)=C2C(=O)OCc2ccccc2)c1 (stereo not drawn),inactive
5,O=C(CCCN1CCOCC1)c1ccc2c(c1)OCCO2,"inconclusive: 31.6 µM [inhibitor, partial curve, poor fit]"
6,CCNC(=O)C/C(C)=N/NC(=O)C1CCCCC1,active: 11.2 µM
7,O=C(O)CCCCCCCCCCP(=O)(c1ccccc1)c1ccccc1,inactive
8,C/C(=N\NC(=S)NCCc1ccccc1)c1cccs1,active: 4.47 µM
9,CCOc1ccc(S(=O)(=O)N(CC(=O)NC2CCCCC2C)Cc2ccco2)cc1 (stereo not drawn),"inconclusive: 3.55 µM [activator, full curve]"
10,COc1ccc(-n2nc(C(=O)O)c3ccccc3c2=O)c(OC)c1,inactive
11,COc1cccc(-c2cc(C(=O)NCc3ccco3)no2)c1,"inconclusive: 0.562 µM [activator, full curve, poor fit]"
12,COC(=O)[C@H]1[C@H]2C[C@@H]3c4[nH]c5ccccc5c4CCN3C[C@H]2C[C@@H](OC(=O)c2cc(OC)c(OC)c(OC)c2)[C@@H]1OC,active: 7.08 µM
13,CN=c1scc(-c2ccccc2F)n1/N=C/c1ccc(O)c(O)c1O,"inconclusive: 31.6 µM [inhibitor, single point]"
14,Cc1occc1-c1nnc(SCC(=O)Nc2ccccc2N2CCCCC2)n1C,"inconclusive: 3.16 µM [inhibitor, partial curve]"
15,COc1ccc(-n2c(SCC(=O)N3CCCCC3C)nnc2-c2cccnc2)cc1 (stereo not drawn),inactive
16,CCc1c(C)nc2c(OC)cccc2c1Cl,"inconclusive: 3.98 µM [inhibitor, partial curve]"
17,c1ccc2cc(OCc3nc4ccccc4[nH]3)ccc2c1,"inconclusive: 11.2 µM [activator, partial curve]"
18,CC(C)c1ccc(NC(=O)C2CCN(S(=O)(=O)c3ccc4c(c3)C(C)(C)C(=O)N4C)CC2)cc1,"inconclusive: 15.8 µM [activator, single point]"
19,Cc1ccc2nc(NC(=O)C3CCN(S(=O)(=O)c4cccs4)CC3)sc2c1,"inconclusive: 12.6 µM [activator, single point]"
20,Cc1nn(C)cc1C1C2=C(CC(C)(C)CC2=O)OC2=C1C(=O)CC(C)(C)C2,"inconclusive: 0.794 µM [inhibitor, full curve, poor fit]"
21,CCOC(=O)c1sc(N)c(C(=O)OCC)c1C,"inconclusive: 0.708 µM [activator, single point]"
22,FC(F)(F)c1cc(-c2ccco2)nc(NCCc2ccccc2)n1,inactive
23,C/C(=N\NC(=S)Nc1ccc(C)cc1)c1cc2ccccc2o1,"inconclusive: 12.6 µM [inhibitor, single point]"
24,CCCC(=O)NC(=S)Nc1ccccc1C(F)(F)F,active: 7.94 µM
25,Cc1ccc(CSCCC(=O)NCCC2=CCCCC2)cc1,"inconclusive: 12.6 µM [activator, single point]"

# Compounds above with an aryl thioether with sulfur outside any ring:
row,SMILES,Potency
2,O=[N+]([O-])c1cc(C(F)(F)F)cc([N+](=O)[O-])c1Sc1n[nH]c(C(F)(F)F)n1,"inconclusive: 17.8 µM [inhibitor, single point]"
14,Cc1occc1-c1nnc(SCC(=O)Nc2ccccc2N2CCCCC2)n1C,"inconclusive: 3.16 µM [inhibitor, partial curve]"
15,COc1ccc(-n2c(SCC(=O)N3CCCCC3C)nnc2-c2cccnc2)cc1 (stereo not drawn),inactive

# Remaining list, next part.

row,SMILES,Potency
1,COc1ccc(-c2oc3ncnc(NCCCN4CCOCC4)c3c2-c2ccc(OC)cc2)cc1,"inconclusive: 1.58 µM [activator, partial curve, poor fit]"
2,Cc1[nH]n(-c2ccccc2)c(=O)c1/C=N/n1c(C)nc2ccccc2c1=O,active: 5.62 µM
3,CCN(C(=O)c1ccc(NC(C)=O)cc1)c1ccccc1C,inactive
4,CC1(C)CCSC(/C=C/c2ccccc2)=N1,"inconclusive: 35.5 µM [inhibitor, single point]"
5,COc1ccccc1C(=O)OCCCN=C1NS(=O)(=O)c2ccccc21,"inconclusive: 31.6 µM [activator, single point]"
6,CCOc1ccc(-n2nnnc2-c2nc3ccccc3s2)cc1,"inconclusive: 11.2 µM [inhibitor, single point]"
7,CC(=O)C1=C(O)C(=O)N(c2cccc(C(=O)O)c2)C1c1ccc(F)cc1 (stereo not drawn),"inconclusive: 35.5 µM [activator, single point]"
8,CCCCCC(=O)NC(=S)Nc1cccc(C(C)=O)c1,active: 2.82 µM
9,Cc1cc(Cl)c(S(=O)(=O)N2CCN(c3ccc(F)cc3)CC2)cc1OCC(=O)NC1CCCCC1,inactive
10,COc1cc(C(=O)NCCc2c[nH]c3ccccc23)ccc1OCc1c(C)noc1C,inactive
11,COCCCN(C(=S)NC(=O)C(C)(C)C)c1c(N)n(Cc2ccccc2)c(=O)[nH]c1=O,inactive
12,CC(=O)c1sc(N/N=C2\CC3CC2C(C)C3(C)C)nc1C (stereo not drawn),active: 7.08 µM
13,S=C(NC1CCCCC1)NN(c1ccccc1)c1ccccc1,active: 2.51 µM
14,COc1ccc(C(=O)N2CCN(c3ncnc4c(-c5ccccc5)nsc34)CC2)cc1,inactive
15,O=C1CC(c2ccccc2)CC(O)=C1C=Nc1ccccc1O (stereo not drawn),active: 11.2 µM
16,O=C(O)c1cc(Cl)c2c(c1)[C@@H]1C=CC[C@@H]1[C@H](c1ccc(S(=O)(=O)N3CCOCC3)cc1)N2,inactive
17,Cc1ccc(N2CCN(CCc3nc4cc(NC(=O)c5ccco5)ccc4n3C)CC2)cc1,"inconclusive: 15.8 µM [activator, single point]"
18,CCOC(=O)c1cnc2c(C)cccc2c1NCCc1ccc(OC)c(OC)c1,inactive
19,COc1ccc(/C=C/C(=O)NC(C)C)cc1Br,"inconclusive: 14.1 µM [activator, single point]"
20,C=C(C)C1CC=C(C)/C(=N/NC(=O)COc2ccccc2Cl)C1 (stereo not drawn),"inconclusive: 35.5 µM [activator, single point]"
21,CNc1ccc(Br)cc1C(O)c1ccccc1 (stereo not drawn),active: 12.6 µM
22,CC1CCC(C(C)C)C2=C1C(C#N)(C#N)C(C#N)(C#N)C(c1ccccc1)N2 (stereo not drawn),"inconclusive: 14.1 µM [inhibitor, single point]"
23,CNC(=S)N(Cc1ccco1)Cc1cc2cc3c(cc2[nH]c1=O)OCCO3,"inconclusive: 5.01 µM [activator, partial curve]"
24,COc1ccc(C(=O)NC2CCN(S(=O)(=O)c3ccc(F)cc3)CC2)cc1,"inconclusive: 0.0708 µM [inhibitor, partial curve, poor fit]"
25,O=C(N/N=C/c1c[nH]c2ccccc12)c1cc(-c2ccc3ccccc3c2)n[nH]1,"inconclusive: 20 µM [inhibitor, single point]"

row,SMILES,Potency
1,Cc1ccccc1C(=O)NC(=S)N(C)CCc1ccccn1,active: 7.08 µM
2,O=C(/C=C/c1cccc([N+](=O)[O-])c1)NCc1ccco1,"inconclusive: 15.8 µM [activator, single point]"
3,CCN(CC)S(=O)(=O)c1ccc(N2CCOCC2)c(NC(=O)c2cc3ccccc3oc2=O)c1,"inconclusive: 10 µM [activator, partial curve]"
4,S=c1nc(-c2ccccc2)n(CCCn2ccnc2)c2c1CCCC2,inactive
5,CCOc1cc([N+](=O)[O-])cc(/C=N/NC(=O)c2c(-c3ccccc3)noc2C)c1O,active: 0.631 µM
6,O=C(O)CCCC(=O)Nc1ccc(N=Nc2ccccc2)cc1,inactive
7,Cc1ccc(N=C2SC(C(=O)Nc3ccc(OC(F)(F)F)cc3)C(N)=C2C(=O)Nc2c(C)cc(C)cc2C)cc1 (stereo not drawn),"inconclusive: 35.5 µM [inhibitor, single point]"
8,CC(C)C1C(C#N)=C(N)Oc2n[nH]c(-c3cccs3)c21 (stereo not drawn),inactive
9,COc1cc(/C=N/N=C(/C(=O)c2ccccc2)c2ccccc2)cc(OC)c1O,"inconclusive: 14.1 µM [activator, single point]"
10,O=c1c2ccccc2[nH]c(=S)n1CCCN1CCN(c2ccccc2)CC1,active: 7.94 µM
11,CCn1c(SCC(=O)NCc2ccccc2)nnc1-c1ccccc1O,"inconclusive: 1.41 µM [inhibitor, full curve, poor fit]"
12,CCc1nc2oc3cc(OC)ccc3c(=O)c2c(=O)n1-c1ccccc1,"inconclusive: 22.4 µM [activator, single point]"
13,COc1ccc(/C=C2\SC(=S)N(CCC(=O)Nc3cccc(O)c3)C2=O)cc1OC,"inconclusive: 20 µM [inhibitor, partial curve]"
14,C/C(=N/NC(=O)c1ccc2c(c1)OCO2)c1ccc(Br)s1,active: 2.82 µM
15,O=S(=O)(NC1CCCCC1N1CCCCC1)c1ccc(Cl)cc1 (stereo not drawn),inactive
16,COc1ccc(Cl)cc1-c1nc(N)nc(NC2CCCCC2)n1,"inconclusive: 20 µM [activator, single point]"
17,COC(=O)C1=C(C)n2cnnc2NC1c1ccc(Cl)cc1 (stereo not drawn),inactive
18,C=C(C)COc1ccc(-c2n[nH]c(C)c2-c2ccc(OC)cc2)c(O)c1,active: 2.24 µM
19,CC(=O)c1cccc(NC(=S)NC(=O)c2ccccc2C)c1,inactive
20,Cc1ccc(-c2nc(CS(=O)CC(=O)NCc3ccccn3)c(C)o2)cc1 (stereo not drawn),"inconclusive: 0.708 µM [inhibitor, full curve]"
21,Cc1ccc(CCNC(=O)C2CCN(S(=O)(=O)c3ccc4c(c3)NC(=O)C(C)S4)CC2)cc1 (stereo not drawn),"inconclusive: 17.8 µM [activator, single point]"
22,O=S(=O)(NCCCN1CCOCC1)c1ccc2ccccc2c1,"inconclusive: 25.1 µM [inhibitor, single point]"
23,O=S(=O)(CS(=O)(=O)c1ccc(Cl)cc1)c1ccc(Cl)cc1,inactive

# 3 structures from above, ordered by heavy-atom count, ascending.
row,SMILES,Potency
19,CC(=O)c1cccc(NC(=S)NC(=O)c2ccccc2C)c1,inactive
18,CCOC(=O)c1cnc2c(C)cccc2c1NCCc1ccc(OC)c(OC)c1,inactive
12,COC(=O)[C@H]1[C@H]2C[C@@H]3c4[nH]c5ccccc5c4CCN3C[C@H]2C[C@@H](OC(=O)c2cc(OC)c(OC)c(OC)c2)[C@@H]1OC,active: 7.08 µM
